# Data taken from the supplement of paper PMC12819154, “High-throughput peptide-centric local stability assay extends protein–ligand identification to membrane proteins, tissues and bacteria” (Nature Structural & Molecular Biology, 2025).
# By UniProt entry, the sequences of proteins in these tests, tags left out. Where a name states a change or a piece, a line headed by the entry shows the natural chain unless it says otherwise.
# UniProt P35789: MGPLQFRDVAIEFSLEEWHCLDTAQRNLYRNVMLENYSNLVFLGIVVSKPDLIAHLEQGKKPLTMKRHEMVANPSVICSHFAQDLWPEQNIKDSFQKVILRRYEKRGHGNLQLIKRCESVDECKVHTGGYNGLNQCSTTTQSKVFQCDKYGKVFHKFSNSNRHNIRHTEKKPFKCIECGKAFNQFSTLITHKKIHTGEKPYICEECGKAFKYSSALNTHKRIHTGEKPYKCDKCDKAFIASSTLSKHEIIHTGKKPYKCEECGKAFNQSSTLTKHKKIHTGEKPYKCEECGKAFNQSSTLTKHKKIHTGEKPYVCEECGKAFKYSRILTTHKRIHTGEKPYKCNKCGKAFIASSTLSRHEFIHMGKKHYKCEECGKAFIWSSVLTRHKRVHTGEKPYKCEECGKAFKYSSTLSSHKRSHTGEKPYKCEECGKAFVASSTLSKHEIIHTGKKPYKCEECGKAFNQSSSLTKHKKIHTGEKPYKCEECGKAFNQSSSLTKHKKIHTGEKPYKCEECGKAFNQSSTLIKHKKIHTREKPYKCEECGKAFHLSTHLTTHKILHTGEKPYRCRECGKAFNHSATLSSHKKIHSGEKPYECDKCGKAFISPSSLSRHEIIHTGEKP
# UniProt P30533, whole entry: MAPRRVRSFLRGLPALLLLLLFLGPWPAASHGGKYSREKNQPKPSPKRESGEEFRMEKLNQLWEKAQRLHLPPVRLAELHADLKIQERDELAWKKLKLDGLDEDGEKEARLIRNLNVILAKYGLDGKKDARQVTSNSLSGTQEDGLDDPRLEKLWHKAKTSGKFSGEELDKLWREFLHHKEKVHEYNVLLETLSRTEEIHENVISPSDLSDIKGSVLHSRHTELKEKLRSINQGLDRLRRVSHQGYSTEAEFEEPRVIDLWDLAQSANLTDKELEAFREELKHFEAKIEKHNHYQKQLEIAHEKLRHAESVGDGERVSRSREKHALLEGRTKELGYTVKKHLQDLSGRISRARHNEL
# UniProt P46087: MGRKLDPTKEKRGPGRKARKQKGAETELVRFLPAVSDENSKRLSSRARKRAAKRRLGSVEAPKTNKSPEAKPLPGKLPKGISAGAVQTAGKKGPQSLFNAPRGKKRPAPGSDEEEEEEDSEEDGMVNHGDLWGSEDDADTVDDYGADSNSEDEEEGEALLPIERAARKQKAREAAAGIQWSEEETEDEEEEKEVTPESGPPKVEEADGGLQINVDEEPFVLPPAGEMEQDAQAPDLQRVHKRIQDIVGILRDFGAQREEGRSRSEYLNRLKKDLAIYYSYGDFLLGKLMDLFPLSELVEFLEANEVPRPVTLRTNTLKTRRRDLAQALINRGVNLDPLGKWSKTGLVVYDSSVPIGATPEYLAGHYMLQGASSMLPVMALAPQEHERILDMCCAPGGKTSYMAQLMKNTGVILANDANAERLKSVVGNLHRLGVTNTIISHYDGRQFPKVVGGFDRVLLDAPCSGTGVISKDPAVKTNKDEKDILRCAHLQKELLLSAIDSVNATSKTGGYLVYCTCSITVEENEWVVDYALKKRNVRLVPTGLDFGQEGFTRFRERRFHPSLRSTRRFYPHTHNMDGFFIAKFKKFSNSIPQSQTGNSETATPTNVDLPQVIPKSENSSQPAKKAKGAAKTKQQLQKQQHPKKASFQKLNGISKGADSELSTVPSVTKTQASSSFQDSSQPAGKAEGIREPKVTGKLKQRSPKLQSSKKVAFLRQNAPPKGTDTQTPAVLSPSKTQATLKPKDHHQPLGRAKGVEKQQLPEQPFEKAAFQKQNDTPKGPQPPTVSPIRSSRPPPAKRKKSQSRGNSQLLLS
# UniProt P35520: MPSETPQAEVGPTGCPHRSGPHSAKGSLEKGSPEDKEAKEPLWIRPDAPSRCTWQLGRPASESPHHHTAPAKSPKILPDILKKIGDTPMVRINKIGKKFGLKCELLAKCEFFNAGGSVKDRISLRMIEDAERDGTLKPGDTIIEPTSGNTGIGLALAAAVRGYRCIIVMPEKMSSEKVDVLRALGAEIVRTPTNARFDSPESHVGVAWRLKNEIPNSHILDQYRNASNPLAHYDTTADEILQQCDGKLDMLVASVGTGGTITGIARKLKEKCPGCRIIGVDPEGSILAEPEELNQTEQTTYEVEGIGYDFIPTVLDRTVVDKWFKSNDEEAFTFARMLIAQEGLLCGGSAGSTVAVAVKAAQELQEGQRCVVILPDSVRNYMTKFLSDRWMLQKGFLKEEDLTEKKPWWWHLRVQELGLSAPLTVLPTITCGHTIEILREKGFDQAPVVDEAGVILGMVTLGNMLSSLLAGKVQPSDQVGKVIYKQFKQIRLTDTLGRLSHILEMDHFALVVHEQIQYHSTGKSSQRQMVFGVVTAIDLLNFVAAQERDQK
# UniProt P35606: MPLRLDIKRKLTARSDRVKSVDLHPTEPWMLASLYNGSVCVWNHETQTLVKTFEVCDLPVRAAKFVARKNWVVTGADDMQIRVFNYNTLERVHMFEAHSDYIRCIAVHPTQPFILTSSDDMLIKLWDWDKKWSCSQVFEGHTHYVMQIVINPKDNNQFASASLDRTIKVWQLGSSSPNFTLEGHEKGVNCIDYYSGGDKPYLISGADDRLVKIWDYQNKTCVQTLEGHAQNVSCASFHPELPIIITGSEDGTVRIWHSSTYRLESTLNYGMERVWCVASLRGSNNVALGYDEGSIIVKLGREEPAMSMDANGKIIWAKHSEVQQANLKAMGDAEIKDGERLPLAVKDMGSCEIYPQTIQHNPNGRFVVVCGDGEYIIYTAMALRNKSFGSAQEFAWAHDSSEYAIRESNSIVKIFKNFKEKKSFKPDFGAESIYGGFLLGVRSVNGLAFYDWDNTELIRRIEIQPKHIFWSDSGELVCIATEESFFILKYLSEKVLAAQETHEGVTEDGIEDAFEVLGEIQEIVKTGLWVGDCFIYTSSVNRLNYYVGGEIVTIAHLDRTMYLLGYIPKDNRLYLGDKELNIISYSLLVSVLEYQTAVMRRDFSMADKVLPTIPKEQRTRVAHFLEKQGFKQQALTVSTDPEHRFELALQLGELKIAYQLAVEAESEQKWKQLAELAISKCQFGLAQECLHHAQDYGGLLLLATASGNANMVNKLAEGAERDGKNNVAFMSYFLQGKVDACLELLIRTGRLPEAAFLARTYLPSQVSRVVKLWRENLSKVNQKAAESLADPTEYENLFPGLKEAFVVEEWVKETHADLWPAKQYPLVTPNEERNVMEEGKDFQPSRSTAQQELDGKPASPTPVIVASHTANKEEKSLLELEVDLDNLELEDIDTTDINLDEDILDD
# UniProt P42566: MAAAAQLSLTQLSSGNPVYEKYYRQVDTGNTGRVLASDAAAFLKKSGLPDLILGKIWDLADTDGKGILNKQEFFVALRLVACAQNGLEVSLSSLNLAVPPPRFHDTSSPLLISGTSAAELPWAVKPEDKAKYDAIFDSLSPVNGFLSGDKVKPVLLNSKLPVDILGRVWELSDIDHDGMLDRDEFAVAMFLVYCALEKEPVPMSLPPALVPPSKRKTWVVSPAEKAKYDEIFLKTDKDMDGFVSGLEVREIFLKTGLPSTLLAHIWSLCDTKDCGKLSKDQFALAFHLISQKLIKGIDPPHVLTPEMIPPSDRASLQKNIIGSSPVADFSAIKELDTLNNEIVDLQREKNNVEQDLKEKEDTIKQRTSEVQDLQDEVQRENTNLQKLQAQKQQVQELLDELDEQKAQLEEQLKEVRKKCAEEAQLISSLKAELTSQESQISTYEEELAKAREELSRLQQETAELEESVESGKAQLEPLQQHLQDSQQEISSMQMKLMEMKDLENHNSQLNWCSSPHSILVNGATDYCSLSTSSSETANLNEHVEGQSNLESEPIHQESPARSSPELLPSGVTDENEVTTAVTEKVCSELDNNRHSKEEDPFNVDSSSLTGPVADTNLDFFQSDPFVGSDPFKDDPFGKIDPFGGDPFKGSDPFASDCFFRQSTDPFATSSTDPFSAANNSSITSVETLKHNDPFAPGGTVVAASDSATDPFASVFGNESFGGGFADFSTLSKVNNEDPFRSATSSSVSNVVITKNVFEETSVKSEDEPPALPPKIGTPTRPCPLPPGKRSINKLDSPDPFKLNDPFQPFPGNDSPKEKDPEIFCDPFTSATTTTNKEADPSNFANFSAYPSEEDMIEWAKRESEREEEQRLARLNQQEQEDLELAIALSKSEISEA
# UniProt P40121: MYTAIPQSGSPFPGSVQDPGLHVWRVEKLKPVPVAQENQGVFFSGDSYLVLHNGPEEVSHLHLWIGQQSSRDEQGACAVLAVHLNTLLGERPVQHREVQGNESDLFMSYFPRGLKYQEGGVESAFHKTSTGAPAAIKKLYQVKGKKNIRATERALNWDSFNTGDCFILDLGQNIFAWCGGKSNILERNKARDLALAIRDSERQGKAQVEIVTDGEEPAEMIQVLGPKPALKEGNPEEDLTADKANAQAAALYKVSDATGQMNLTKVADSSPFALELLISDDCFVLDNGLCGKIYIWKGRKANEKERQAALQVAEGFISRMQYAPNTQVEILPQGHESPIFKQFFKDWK
# UniProt P36404: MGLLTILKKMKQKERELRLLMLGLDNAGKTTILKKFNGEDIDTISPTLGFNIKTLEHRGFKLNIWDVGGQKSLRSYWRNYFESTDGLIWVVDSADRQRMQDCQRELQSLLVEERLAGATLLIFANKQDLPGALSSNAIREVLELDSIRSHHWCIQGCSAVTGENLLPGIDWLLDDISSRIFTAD
# UniProt P38159: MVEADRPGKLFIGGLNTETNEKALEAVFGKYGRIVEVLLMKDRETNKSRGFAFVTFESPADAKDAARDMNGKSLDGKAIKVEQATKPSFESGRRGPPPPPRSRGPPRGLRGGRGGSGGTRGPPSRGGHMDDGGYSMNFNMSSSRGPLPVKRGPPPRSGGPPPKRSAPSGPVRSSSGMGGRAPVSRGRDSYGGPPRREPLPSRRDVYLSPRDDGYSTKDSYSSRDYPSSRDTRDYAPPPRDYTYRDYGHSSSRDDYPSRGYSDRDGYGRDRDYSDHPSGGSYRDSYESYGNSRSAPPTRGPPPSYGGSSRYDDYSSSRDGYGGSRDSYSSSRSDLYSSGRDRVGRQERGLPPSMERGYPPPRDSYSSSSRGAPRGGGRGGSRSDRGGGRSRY
# UniProt P42336, whole entry: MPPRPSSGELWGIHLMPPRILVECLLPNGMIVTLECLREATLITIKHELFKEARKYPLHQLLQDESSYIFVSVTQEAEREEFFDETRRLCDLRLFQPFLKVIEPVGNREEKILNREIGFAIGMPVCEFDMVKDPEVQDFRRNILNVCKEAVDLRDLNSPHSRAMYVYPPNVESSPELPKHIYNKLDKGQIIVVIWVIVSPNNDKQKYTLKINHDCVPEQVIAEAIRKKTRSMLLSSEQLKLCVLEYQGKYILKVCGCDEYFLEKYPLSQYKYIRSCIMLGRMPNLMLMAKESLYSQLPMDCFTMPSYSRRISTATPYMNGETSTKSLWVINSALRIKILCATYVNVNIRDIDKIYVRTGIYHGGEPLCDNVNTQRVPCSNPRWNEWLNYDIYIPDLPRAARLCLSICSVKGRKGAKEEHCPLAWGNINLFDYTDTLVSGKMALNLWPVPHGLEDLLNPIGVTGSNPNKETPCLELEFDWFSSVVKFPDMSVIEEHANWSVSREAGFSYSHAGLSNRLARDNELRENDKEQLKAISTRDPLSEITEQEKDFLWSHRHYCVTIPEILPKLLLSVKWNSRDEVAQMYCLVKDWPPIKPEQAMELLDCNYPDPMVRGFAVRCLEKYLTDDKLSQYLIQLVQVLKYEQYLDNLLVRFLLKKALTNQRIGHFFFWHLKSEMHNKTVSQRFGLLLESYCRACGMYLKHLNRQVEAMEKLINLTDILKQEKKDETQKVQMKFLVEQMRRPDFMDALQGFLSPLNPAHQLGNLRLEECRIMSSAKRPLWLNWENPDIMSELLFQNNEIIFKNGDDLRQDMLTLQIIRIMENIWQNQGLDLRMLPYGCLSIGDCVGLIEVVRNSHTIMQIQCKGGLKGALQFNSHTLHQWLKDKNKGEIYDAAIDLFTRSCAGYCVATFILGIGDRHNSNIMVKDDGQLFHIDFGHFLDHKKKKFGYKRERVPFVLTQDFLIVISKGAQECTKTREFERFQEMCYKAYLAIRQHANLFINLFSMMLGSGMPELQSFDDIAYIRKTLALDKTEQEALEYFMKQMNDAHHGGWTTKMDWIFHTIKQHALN
# UniProt P41212: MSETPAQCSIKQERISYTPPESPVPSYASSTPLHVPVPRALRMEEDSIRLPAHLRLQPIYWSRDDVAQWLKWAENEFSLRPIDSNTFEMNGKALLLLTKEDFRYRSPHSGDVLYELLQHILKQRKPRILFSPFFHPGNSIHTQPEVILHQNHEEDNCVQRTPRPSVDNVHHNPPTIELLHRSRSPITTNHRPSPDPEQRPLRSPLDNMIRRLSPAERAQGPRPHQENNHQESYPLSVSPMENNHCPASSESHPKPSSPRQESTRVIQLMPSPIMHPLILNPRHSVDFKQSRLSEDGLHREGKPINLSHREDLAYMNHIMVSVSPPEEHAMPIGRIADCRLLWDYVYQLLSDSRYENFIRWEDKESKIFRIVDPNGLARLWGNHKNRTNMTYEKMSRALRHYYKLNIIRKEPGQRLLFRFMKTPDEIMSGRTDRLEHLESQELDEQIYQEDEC
# This is one part of the list. Most entries show no effect beyond the scatter of the controls.
# Compound: CN[C@@H]1C[C@H]2O[C@@](C)([C@@H]1OC)n1c3ccccc3c3c4c(c5c6ccccc6n2c5c31)C(=O)NC4 [staurosporine]
# Assay: log2 fold change of tryptic peptide abundance, ligand vs vehicle (limited proteolysis) (log2 ratio); higher = more trypsin-susceptible (destabilized)
# Details: ligand concentration: 20 uM; sample: K562 cleared lysate; digestion: 4 min, 22 C (HT-PELSA RT4min, Orbitrap Astral)
row,Target,log2 fold change
1,"ALDH1B1 (peptide sequence: KIEEVVER, peptide start residue: 429) (UniProt P30837)",0.236
2,"ALDH4A1 (peptide sequence: SSPSLTILAGGK, peptide start residue: 409) (UniProt P30038)",0.331
3,"ARL1 (peptide sequence: ILILGLDGAGK, peptide start residue: 20) (UniProt P40616)",0.428
4,"ZNF93 (peptide sequence: SHTGEKPYK, peptide start residue: 483) (UniProt P35789)",-0.398
5,"LRPAP1 (peptide sequence: HTELKEK, peptide start residue: 221) (UniProt P30533)",-0.779
6,"ECHS1 (peptide sequence: NNTVGLIQLNRPK, peptide start residue: 44) (UniProt P30084)",0.3
7,"TIA1 (peptide sequence: GYGFVSFFNK, peptide start residue: 148) (UniProt P31483)",-0.173
8,"ARRB2 (peptide sequence: LKHEDTNLASSTIVK, peptide start residue: 294) (UniProt P32121)",-0.217
9,"NOP2 (peptide sequence: ILDMCCAPGGK, peptide start residue: 388) (UniProt P46087)",0.649
10,"DNAJA1 (peptide sequence: ILEVHIDKGMKDGQK, peptide start residue: 207) (UniProt P31689)",0.736
11,"MAGEA6 (peptide sequence: ALIETSYVK, peptide start residue: 277) (UniProt P43360)",0.281
12,"NUP62 (peptide sequence: ILNAHMDSLQWIDQNSALLQR, peptide start residue: 477) (UniProt P37198)",0.305
13,"GPX4 (peptide sequence: ILAFPCNQFGK, peptide start residue: 97) (UniProt P36969)",0.845
14,"UniProt P41227 (peptide sequence: DLSEVSETTESTDVK, peptide start residue: 211)",-0.52
15,"RANBP1 (peptide sequence: TLEEDEEELFKMRAK, peptide start residue: 40) (UniProt P43487)",1.25
16,"P41778 (peptide sequence: KCGITVSQVSNWFGNKR, peptide start residue: 283) (UniProt P40424)",-0.217
17,"UniProt P41279 (peptide sequence: VYLAQDIK, peptide start residue: 152)",0.256
18,"KDM5A (peptide sequence: NLLDDVEEFHER, peptide start residue: 848) (UniProt P29375)",0.326
19,"CBS (peptide sequence: GFLKEEDLTEK, peptide start residue: 395) (UniProt P35520)",0.176
20,"ACADSB (peptide sequence: LFDFQGLQHQVAHVATQLEAAR, peptide start residue: 326) (UniProt P45954)",-0.485

row,Target,log2 fold change
1,"CDC27 (peptide sequence: ASVLFANEKYK, peptide start residue: 710) (UniProt P30260)",0.723
2,"ETV3 (peptide sequence: KTELSELEDGSAADWRR, peptide start residue: 188) (UniProt P41162)",-0.496
3,"NAMPT (peptide sequence: NAQLNIELEAAHH, peptide start residue: 479) (UniProt P43490)",-0.413
4,"ATP7B (peptide sequence: SLPAQEAVVK, peptide start residue: 137) (UniProt P35670)",0.138
5,"COPB2 (peptide sequence: TRVAHFLEK, peptide start residue: 619) (UniProt P35606)",-0.528
6,"MAGEA3 (peptide sequence: SQHCKPEEGLEAR, peptide start residue: 7) (UniProt P43357)",-0.111
7,"SDHA (peptide sequence: TGHSLLHTLYGR, peptide start residue: 196) (UniProt P31040)",0.452
8,"EPS15 (peptide sequence: EKNNVEQDLK, peptide start residue: 348) (UniProt P42566)",0.32
9,"KIF5B (peptide sequence: LRVEHEK, peptide start residue: 747) (UniProt P33176)",0.195
10,"PSMC4 (peptide sequence: MEEIGILVEK, peptide start residue: 1) (UniProt P43686)",-0.263
11,"MYH11 (peptide sequence: NTDQASMPDNTAAQK, peptide start residue: 359) (UniProt P35749)",-0.206
12,"CAPG (peptide sequence: EGNPEEDLTADK, peptide start residue: 232) (UniProt P40121)",0.353
13,"ARL2 (peptide sequence: GLLTILKK, peptide start residue: 2) (UniProt P36404)",0.193
14,"RBMX (peptide sequence: YDDYSSSR, peptide start residue: 310) (UniProt P38159)",-0.189
15,"PIK3CA (peptide sequence: SMLLSSEQLK, peptide start residue: 231) (UniProt P42336)",0.111
16,"RPL22 (peptide sequence: SKITVTSEVPFSK, peptide start residue: 68) (UniProt P35268)",-0.102
17,"LAP3 (peptide sequence: QVVDCQLADVNNIGKYR, peptide start residue: 441) (UniProt P28838)",-0.363
18,"CASP3 (peptide sequence: SGTDVDAANLR, peptide start residue: 65) (UniProt P42574)",0.389
19,"ACSL1 (peptide sequence: TAEALDKDGWLHTGDIGK, peptide start residue: 526) (UniProt P33121)",0.615
20,"ETV6 (peptide sequence: SPLDNMIR, peptide start residue: 203) (UniProt P41212)",-0.135

# Two entries drawn at random from those above:
row,Target,log2 fold change
16,"RPL22 (peptide sequence: SKITVTSEVPFSK, peptide start residue: 68) (UniProt P35268)",-0.102
4,"ATP7B (peptide sequence: SLPAQEAVVK, peptide start residue: 137) (UniProt P35670)",0.138
